{
  "sequences": {"note": "Chains of the proteins cited; added tags and fusions are not shown. Lines headed by an entry give the natural chain unless they say otherwise; changes in a name come on top.", "UniProt Q9Y696": "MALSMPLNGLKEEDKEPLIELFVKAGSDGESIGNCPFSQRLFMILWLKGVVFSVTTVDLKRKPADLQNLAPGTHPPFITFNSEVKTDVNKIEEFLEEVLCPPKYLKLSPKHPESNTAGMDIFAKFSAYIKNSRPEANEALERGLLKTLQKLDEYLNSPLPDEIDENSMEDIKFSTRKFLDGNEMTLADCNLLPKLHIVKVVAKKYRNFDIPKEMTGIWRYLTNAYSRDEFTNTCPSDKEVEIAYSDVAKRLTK", "UniProt Q60598": "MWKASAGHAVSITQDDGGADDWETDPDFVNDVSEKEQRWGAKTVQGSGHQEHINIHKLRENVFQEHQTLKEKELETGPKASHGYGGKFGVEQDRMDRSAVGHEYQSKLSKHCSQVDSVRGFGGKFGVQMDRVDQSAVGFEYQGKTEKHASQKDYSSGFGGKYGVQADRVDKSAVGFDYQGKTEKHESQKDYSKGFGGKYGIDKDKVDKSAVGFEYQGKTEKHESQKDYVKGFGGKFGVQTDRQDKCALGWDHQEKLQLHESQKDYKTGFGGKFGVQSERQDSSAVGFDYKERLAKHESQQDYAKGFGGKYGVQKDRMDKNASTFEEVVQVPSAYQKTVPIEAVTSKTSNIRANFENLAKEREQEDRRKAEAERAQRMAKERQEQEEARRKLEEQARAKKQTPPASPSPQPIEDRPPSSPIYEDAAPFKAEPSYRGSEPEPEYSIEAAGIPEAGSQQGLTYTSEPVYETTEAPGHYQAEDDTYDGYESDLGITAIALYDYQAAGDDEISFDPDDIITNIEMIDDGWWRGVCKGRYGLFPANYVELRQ"},
  "source": "paper PMC4736046",
  "key": {"[1]": {"target": "Flag-CLIC4 (UniProt Q9Y696)", "assay": "co-IP; HEK 293T cells transiently transfected with mCherry-cortactin and/or Flag-CLIC4; anti-Flag antibody; blots with anti-DsRed and anti-CLIC4"}, "[2]": {"target": "purified recombinant cortactin (aa 82-330) fragment (UniProt Q60598)", "assay": "pull-down; purified recombinant cortactin (aa 82-330) fragment as bait, purified CLIC4 pulled down (Supplementary Fig. 8b-d); both purified"}, "[3]": {"target": "purified glutathione transfer protein (GST) fusion of CLIC4 (UniProt Q9Y696)", "assay": "pull-down; converse experiment: purified GST fusion of CLIC4 or GST alone as bait, purified cortactin fragment pulled down (Supplementary Fig. 8e); both purified"}},
  "note": "No constants are given. Whether binding was seen depends on the method and setting. For part of these data: Binding seen in cells or lysates may run through a third protein. Some binding calls cover weakened binding; strength is not graded here.",
  "data": [
    {"substance": "mCherry-cortactin (from UniProt Q60598 1-546)", "values": [
      {"measurement": "binding", "setting": "[1]", "value": "binds"}
    ]},
    {"substance": "purified CLIC4 (from UniProt Q9Y696 1-253)", "values": [
      {"measurement": "binding", "setting": "[2]", "value": "binds"}
    ]},
    {"substance": "purified recombinant cortactin (aa 82-330) fragment (from UniProt Q60598 82-330) (domain or fragment)", "values": [
      {"measurement": "binding", "setting": "[3]", "value": "binds"}
    ]}
  ]
}
